Results from paper PMC10110466 (Nature biotechnology, 2022).
Results are given in words; binding and its absence hold for the method and conditions named.

Molecular target: T1, soluble human IL-2Rβγ complex (human, UniProt P31785 23-262; P14784 27-240, biotin)
T1 sequence (looked up) 1: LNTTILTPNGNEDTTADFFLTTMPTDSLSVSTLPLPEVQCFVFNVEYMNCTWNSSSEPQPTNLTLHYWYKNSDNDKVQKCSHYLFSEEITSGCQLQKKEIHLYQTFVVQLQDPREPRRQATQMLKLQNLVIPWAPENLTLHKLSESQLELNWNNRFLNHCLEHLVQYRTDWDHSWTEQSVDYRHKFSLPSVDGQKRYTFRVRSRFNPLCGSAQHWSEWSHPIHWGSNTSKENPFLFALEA
T1 sequence (looked up) 2: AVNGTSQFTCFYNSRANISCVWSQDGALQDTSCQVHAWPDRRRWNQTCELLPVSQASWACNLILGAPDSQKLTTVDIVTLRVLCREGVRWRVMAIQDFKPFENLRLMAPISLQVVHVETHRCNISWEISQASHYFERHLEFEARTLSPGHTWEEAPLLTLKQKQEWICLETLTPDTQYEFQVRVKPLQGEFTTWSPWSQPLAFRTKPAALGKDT
Test: BLI; biotinylated human IL-2Rγ on streptavidin sensors (Octet RED96), soluble hIL-2Rβ (250 nM in Fig. 1b) in solution with the analyte; analytes at 1 μM (Fig. 1b) or titrated (Extended Data Fig. 1); HBS-EP+ with non-fat dry milk; both purified

B1: Neo2A (peptide)
peptide: PKKKIQLHAEHALYDALMILNIVKTNS
  binding: no binding
